The target of the test is T1, GFP-Vps501 (S. cerevisiae) (UniProt P36158).
T1 sequence: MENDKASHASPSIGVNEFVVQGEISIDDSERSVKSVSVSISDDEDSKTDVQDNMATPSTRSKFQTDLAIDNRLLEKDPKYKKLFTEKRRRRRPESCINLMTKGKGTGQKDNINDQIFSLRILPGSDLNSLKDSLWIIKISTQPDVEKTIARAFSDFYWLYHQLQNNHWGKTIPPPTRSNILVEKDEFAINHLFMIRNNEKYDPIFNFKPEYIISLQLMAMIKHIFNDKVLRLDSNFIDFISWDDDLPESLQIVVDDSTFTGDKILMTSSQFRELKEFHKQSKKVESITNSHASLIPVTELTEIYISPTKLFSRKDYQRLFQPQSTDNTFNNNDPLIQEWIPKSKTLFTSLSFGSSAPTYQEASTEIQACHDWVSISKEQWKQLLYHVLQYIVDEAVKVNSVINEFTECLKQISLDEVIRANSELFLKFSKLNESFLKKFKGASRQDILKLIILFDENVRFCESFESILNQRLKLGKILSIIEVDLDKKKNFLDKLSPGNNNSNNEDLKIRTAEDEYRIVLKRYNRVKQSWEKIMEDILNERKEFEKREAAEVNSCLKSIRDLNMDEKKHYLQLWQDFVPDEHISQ
Description: affinity purification with mass spectrometry; GFP-Vps501 captured from 200 mg whole cell protein extract on GFP-Trap Magnetic Agarose, 4°C, 20 min; washed five times in 50 mM Tris-HCl pH 7.4, 150 mM NaCl; SDS-PAGE, in-gel trypsin digestion, LC-MS/MS; triplicate, normalised to beads alone.

Amino acid sequences for entries named in this document (tags omitted).
UniProt P38873: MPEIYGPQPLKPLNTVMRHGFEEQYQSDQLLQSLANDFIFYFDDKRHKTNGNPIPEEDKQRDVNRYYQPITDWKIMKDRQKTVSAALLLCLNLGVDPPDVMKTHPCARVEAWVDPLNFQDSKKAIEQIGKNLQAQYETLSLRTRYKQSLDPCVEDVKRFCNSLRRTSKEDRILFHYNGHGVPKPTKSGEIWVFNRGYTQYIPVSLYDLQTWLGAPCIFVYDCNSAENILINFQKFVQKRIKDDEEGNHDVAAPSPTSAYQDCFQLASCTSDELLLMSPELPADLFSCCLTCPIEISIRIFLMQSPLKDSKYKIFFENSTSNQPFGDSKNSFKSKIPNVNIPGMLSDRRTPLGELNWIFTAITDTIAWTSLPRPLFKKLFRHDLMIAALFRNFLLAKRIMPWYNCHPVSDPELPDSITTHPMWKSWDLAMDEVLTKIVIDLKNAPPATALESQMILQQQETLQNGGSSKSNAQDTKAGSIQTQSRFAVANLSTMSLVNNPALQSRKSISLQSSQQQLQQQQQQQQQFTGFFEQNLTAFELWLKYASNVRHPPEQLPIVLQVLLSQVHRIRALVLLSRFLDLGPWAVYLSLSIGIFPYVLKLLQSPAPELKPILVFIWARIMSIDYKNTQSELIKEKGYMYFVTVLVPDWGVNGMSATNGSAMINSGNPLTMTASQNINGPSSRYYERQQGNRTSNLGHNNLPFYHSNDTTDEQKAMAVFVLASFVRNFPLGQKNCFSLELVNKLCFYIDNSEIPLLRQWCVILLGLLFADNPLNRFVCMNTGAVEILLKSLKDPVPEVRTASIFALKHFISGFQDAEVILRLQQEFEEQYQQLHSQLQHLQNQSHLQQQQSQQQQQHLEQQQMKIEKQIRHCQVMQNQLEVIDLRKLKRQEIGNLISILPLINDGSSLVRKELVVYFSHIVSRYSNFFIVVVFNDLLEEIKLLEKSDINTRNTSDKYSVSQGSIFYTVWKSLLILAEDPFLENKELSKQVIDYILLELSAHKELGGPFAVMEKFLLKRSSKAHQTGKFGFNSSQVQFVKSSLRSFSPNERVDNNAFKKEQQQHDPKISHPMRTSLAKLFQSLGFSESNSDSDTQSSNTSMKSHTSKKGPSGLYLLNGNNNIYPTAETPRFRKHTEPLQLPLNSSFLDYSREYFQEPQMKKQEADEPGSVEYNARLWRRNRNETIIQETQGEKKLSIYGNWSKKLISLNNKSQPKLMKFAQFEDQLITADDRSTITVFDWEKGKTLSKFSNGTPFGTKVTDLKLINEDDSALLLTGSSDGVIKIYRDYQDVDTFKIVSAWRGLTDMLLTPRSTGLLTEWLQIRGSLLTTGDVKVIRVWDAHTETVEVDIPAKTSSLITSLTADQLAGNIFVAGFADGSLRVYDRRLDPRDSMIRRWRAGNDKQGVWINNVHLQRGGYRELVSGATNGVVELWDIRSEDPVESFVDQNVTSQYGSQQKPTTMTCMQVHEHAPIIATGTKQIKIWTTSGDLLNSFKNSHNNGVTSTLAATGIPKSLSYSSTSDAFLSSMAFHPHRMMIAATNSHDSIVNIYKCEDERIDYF
UniProt P47170: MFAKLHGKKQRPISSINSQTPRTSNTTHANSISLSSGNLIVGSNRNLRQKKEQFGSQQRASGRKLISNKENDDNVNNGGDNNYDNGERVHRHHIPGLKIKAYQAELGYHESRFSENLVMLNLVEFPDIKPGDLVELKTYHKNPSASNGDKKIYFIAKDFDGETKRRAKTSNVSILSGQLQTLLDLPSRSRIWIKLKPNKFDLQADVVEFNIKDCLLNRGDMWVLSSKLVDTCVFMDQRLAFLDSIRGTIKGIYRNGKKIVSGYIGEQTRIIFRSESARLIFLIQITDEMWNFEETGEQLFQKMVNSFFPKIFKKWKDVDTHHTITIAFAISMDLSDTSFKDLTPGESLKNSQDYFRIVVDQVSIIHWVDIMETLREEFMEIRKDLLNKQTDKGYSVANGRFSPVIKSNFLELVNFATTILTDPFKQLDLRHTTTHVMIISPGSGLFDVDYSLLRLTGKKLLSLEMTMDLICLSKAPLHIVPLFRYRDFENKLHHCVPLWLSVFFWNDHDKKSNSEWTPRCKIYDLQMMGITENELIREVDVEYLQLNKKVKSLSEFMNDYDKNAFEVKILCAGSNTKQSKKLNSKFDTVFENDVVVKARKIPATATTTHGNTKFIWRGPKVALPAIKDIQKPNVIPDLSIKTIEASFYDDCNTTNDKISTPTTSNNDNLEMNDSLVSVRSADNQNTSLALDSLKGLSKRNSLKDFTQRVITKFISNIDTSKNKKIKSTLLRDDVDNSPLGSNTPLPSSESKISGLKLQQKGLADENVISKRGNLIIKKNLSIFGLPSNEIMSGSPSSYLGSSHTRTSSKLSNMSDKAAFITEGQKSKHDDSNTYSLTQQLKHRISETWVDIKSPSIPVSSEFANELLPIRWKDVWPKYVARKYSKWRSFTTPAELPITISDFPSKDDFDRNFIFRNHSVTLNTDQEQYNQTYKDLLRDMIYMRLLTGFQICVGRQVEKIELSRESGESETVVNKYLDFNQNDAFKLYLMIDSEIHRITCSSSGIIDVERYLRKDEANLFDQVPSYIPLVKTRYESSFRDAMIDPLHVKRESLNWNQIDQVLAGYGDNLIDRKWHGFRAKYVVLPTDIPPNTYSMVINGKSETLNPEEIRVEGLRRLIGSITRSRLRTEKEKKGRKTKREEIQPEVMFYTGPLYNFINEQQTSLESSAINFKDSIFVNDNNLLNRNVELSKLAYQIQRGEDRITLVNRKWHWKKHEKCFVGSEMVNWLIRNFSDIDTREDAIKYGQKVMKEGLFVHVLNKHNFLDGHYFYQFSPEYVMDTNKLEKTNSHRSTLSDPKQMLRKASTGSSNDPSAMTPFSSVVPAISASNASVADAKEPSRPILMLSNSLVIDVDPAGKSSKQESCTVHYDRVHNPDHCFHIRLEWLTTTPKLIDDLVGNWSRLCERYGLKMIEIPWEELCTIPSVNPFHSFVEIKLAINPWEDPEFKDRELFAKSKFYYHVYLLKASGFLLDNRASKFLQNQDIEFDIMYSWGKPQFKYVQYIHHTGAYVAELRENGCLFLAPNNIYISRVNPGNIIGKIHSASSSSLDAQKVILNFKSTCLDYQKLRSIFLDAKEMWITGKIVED

No constants are given. Whether binding was seen depends on the method and setting. In cells and extracts the contact can be indirect. These calls come from enrichment with a bait or labelling near it, and not all partners need be listed. Sequences can lack the tags named with a protein.

Regarding Kog1 (from UniProt P38873 1-1557), the binding result is reported as “binds”.
With Sea1 (from UniProt P47170 1-1584), the binding result was “binds”.

B1: Seh1 (protein, UniProt P53011 1-349)
chain: MQPFDSGHDDLVHDVVYDFYGRHVATCSSDQHIKVFKLDKDTSNWELSDSWRAHDSSIVAIDWASPEYGRIIASASYDKTVKLWEEDPDQEECSGRRWNKLCTLNDSKGSLYSVKFAPAHLGLKLACLGNDGILRLYDALEPSDLRSWTLTSEMKVLSIPPANHLQSDFCLSWCPSRFSPEKLAVSALEQAIIYQRGKDGKLHVAAKLPGHKSLIRSISWAPSIGRWYQLIATGCKDGRIRIFKITEKLSPLASEESLTNSNMFDNSADVDMDAQGRSDSNTEEKAELQSNLQVELLSEHDDHNGEVWSVSWNLTGTILSSAGDDGKVRLWKATYSNEFKCMSVITAQQ
As to B1, the binding entry was “binds”.
